Laboratory results reported in US20240294634A1.

B1: 3H5 (antibody, human IgG1, V domains shown)
VH: QVQLKESGPGLVAPSQSLSITCTVSGFSLTSYGVSWVRQPPGKGLEWLGVIWGDGSTNYHSALISRLSISKDNSKSQVFLKLNSLQTDDTATYYCAKPRWDDYAMDYWGQGTSVTVSS
VL: DIQMTQTTSSLSASLGDRVTISCRASQDISNYLNWYQQKPDGTVKLLIYYTSRLHSGVPSRFSGSGSGTDYSLTISNLEQEDIATYFCQQGNTLWTFGGGTKLEIK
B2: 12D12 (antibody, human IgG1, V domains shown)
VH: QVQLQQPGAELVKPGASVRMSCKASGYTFTSYWVHWVKQRPGQGLEWIGVIDPSDSYTSYNQNFKGKATLTVDTSSKTAYIHLSSLTSEDSAVYFCARGERYDGDYFAMDYWGQGTSVTVSS
VL: DIVMTQSPASLSVSVGETVTITCRASENIYSNLAWYQQKQGKSPQLLVYAATNLADGVPSRFSGSRSGTQYSLKINSLQSEDFGTYYCQHFWNTPRTFGGGTKLEIK
B3: 27H5 (antibody, human IgG1, V domains shown)
VH: QVQLKESGPGLVAPSQSLSITCTVSGFSLTSYGVSWVRQPPGKGLEWLGVIWGDGNTNYHSALISRLSISKDNSKSQVFLKLNSLQTDDTATYYCARTNWDGWFAYWGQGTLVTVSA
VL: DIVMTQSHKFMSTSVGDRVSITCKASQDVGTAVAWYQQKPGQSPKLLIYWASTRHTGVPDRFTGSGSGTDFTLTISNVQSEDLADYFCQQYRSYPLGTFGGGTKLEIK

Target: ILT2 D1 domain fragment protein anchored to the cell surface (human)
Assay: flow cytometry on CHO cells expressing the anchored ILT2 D1 domain fragment

Row | binding | Binder
1 | binds | B1
2 | binds | B2
3 | binds | B3

Target: ILT2 D1-D2-D3 domain fragment protein anchored to the cell surface (human)
Assay: flow cytometry, CHO cells with anchored ILT2 fragment

Row | binding | Binder
4 | binds | B1
5 | binds | B2
6 | binds | B3

Target: ILT2 D1-D2 domain fragment protein anchored to the cell surface (human)
Assay: as above

Row | binding | Binder
7 | binds | B1
8 | binds | B2
9 | binds | B3

Target: ILT2 D1 domain fragment protein anchored to the cell surface (human)
Assay: as above

Row | binding | Binder
10 | binds | B1
11 | binds | B2
12 | binds | B3

Results are given in words; binding and its absence hold for the method and conditions named. A result given as binding can be weak or reduced; the word gives no strength.
